Test results reported in article doi:10.1101/511758 (bioRxiv, 2019).
No constants are given. Whether binding was seen depends on the method and setting.

Protein sequences, listed by entry. Tags and fused reporters are not part of them.
UniProt P0AGE0: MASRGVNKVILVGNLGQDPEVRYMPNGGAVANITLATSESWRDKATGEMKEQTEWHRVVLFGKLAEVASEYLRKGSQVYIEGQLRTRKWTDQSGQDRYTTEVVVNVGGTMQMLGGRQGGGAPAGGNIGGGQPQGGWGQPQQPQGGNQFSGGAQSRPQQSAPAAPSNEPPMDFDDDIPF

Biological target: E. coli ssDNA binding protein SSB (E. coli) (UniProt P0AGE0)
Test: native gel or EMSA

B1: human HelQ helicase (full-length HelQ) (enzyme)
chain: MDECGSRIRRRVSLPKRNRPSLGCIFGAPTAAELVPGDEGKEEEEMVAENRRRKTAGVLPVEVQPLLLSDSPECLVLGGGDTNPDLLRHMPTDRGVGDQPNDSEVDMFGDYDSFTENSFIAQVDDLEQKYMQLPEHKKHATDFATENLCSESIKNKLSITTIGNLTELQTDKHTENQSGYEGVTIEPGADLLYDVPSSQAIYFENLQNSSNDLGDHSMKERDWKSSSHNTVNEELPHNCIEQPQQNDESSSKVRTSSDMNRRKSIKDHLKNAMTGNAKAQTPIFSRSKQLKDTLLSEEINVAKKTVESSSNDLGPFYSLPSKVRDLYAQFKGIEKLYEWQHTCLTLNSVQERKNLIYSLPTSGGKTLVAEILMLQELLCCRKDVLMILPYVAIVQEKISGLSSFGIELGFFVEEYAGSKGRFPPTKRREKKSLYIATIEKGHSLVNSLIETGRIDSLGLVVVDELHMIGEGSRGATLEMTLAKILYTSKTTQIIGMSATLNNVEDLQKFLQAEYYTSQFRPVELKEYLKINDTIYEVDSKAENGMTFSRLLNYKYSDTLKKMDPDHLVALVTEVIPNYSCLVFCPSKKNCENVAEMICKFLSKEYLKHKEKEKCEVIKNLKNIGNGNLCPVLKRTIPFGVAYHHSGLTSDERKLLEEAYSTGVLCLFTCTSTLAAGVNLPARRVILRAPYVAKEFLKRNQYKQMIGRAGRAGIDTIGESILILQEKDKQQVLELITKPLENCYSHLVQEFTKGIQTLFLSLIGLKIATNLDDIYHFMNGTFFGVQQKVLLKEKSLWEITVESLRYLTEKGLLQKDTIYKSEEEVQYNFHITKLGRASFKGTIDLAYCDILYRDLKKGLEGLVLESLLHLIYLTTPYDLVSQCNPDWMIYFRQFSQLSPAEQNVAAILGVSESFIGKKASGQAIGKKVDKNVVNRLYLSFVLYTLLKETNIWTVSEKFNMPRGYIQNLLTGTASFSSCVLHFCEELEEFWVYRALLVELTKKLTYCVKAELIPLMEVTGVLEGRAKQLYSAGYKSLMHLANANPEVLVRTIDHLSRRQAKQIVSSAKMLLHEKAEALQEEVEELLRLPSDFPGAVASSTDKA
**Q.** Which binding does the source give for B1 here?
**A.** The binding was “no binding”.
